Reference: PubChem BioAssay AID540256 (National Center for Advancing Translational Sciences (NCATS), 2011)
Out of some 300,000 compounds screened, about 3,700 (1.2%) were called active. The shares of active, inactive and inconclusive entries below differ from those in the screen. Calls come from the whole dose curve; tested in HEK293 cells. Potencies beside an inconclusive call are fits to weak or partial responses and may not hold up.

Assay: qHTS for Inhibitors of binding or entry into cells for Lassa Virus; note: nearly all actives have a fitted effect of over 50% in size
Settings: Lassa virus pseudotype entry inhibition, cell reporter; activity change, negative = inhibition: at 37.9 µM (top of the series) unless noted
% is set by controls: 0 for no effect and ±100 for the full control effect; potency is the fitted concentration of half-maximal effect.

| SMILES | activity change, negative = inhibition | Potency |
| --- | --- | --- |
| Clc1ccc(CCNc2ncnc3nc[nH]c23)cc1 | inactive: -2.92% | – |
| CCn1c(C)cc(C(=O)CN2C(=O)c3ccccc3S2(=O)=O)c1C | – | active: 1.41 µM |
| Cc1sc(NC(=O)C2CSC3(C)CCC(=O)N23)nc1-c1ccccc1 (centres undefined) | – | inconclusive: 10 µM [inhibitor, partial curve] |
| COc1ccc(N2CCN(C(=O)CN(Cc3ccccc3)S(C)(=O)=O)CC2)cc1 | – | inconclusive: 0.184 µM [inhibitor, full curve, poor fit] |
| CCOc1cc(/C=N/NC(=O)C(=O)NCc2cccnc2)ccc1O | – | inconclusive: 35.5 µM [activator, single point] |
| COc1ccc2cc(S(=O)(=O)c3ccccc3F)c(=O)oc2c1 | – | inconclusive: 12.6 µM [inhibitor, single point] |
| Cn1c(SCc2ccc(F)cc2Cl)nc2ccccc2c1=O | – | inconclusive: 12.6 µM [inhibitor, partial curve, poor fit] |
| CC(CC1C(C#N)=C(N)OC2=C1C(=O)CCC2)c1ccccc1 (centres undefined) | inactive: -9.73% | – |
| COc1ccc(-n2cnc3sc(-c4ccccc4)cc3c2=O)cc1 | – | inconclusive: 2.59 µM [activator, partial curve, poor fit] |
| COc1ccccc1NC(=O)CN1CCN(CC(=O)Nc2ccc(OCc3ccccc3)cc2)CC1 | – | active: 11.2 µM |
| O=C(NCCc1nc2ccccc2n1CCOc1ccc(Cl)cc1)C1CCCCC1 | – | inconclusive: 11.2 µM [inhibitor, single point] |
| CCN(CC)C(=O)COc1cc(C)cc2oc(=O)cc(-c3ccccc3)c12 | – | inconclusive: 3.98 µM [inhibitor, partial curve, poor fit] |
| O=C(Nc1ccc(NC(=O)c2ccco2)nc1)c1cccnc1 | – | inconclusive: 0.58 µM [activator, partial curve, poor fit] |
| NS(=O)(=O)c1ccc(CCNc2ncnc3sccc23)cc1 | – | inconclusive: 25.9 µM [inhibitor, partial curve, poor fit] |
| O=C(CSc1nc2c(c(=O)n1-c1ccccc1)SCC2)NCC1CCCO1 (centres undefined) | inactive: -0.885% [at 46.1 µM] | – |
| COC(=O)c1ccc(NC(=O)CSc2ccc(-c3cccs3)nn2)cc1 | – | inconclusive: 5.62 µM [inhibitor, single point] |
| O=C(Nc1ccc(-c2nc3ccc(NC(=O)c4cccs4)cc3[nH]2)cc1)c1cccs1 | – | inconclusive: 17.8 µM [inhibitor, partial curve, poor fit] |
| Cc1cccc(OCC(=O)Nc2ccc(C(=O)OCc3cc(=O)n4nc(C5CC5)sc4n3)cc2)c1 | – | inconclusive: 2 µM [inhibitor, single point] |
| CN(C)c1ccc(NC(=O)c2sc(SCC(=O)Nc3ccc(Br)cc3)nc2N)cc1 | inactive: 19.2% | – |
| C=CCNC(=S)N1CCN(CCNC2=CC(=O)CC(C)(C)C2)CC1 | inactive: 17.5% | – |
| CCCC(=O)N(c1ccccc1)C1C=CS(=O)(=O)C1 (centres undefined) | – | inconclusive: 2.51 µM [inhibitor, full curve, poor fit] |
| COc1ccc(S(=O)(=O)NCCSCc2ccco2)cc1OC | – | inconclusive: 0.291 µM [inhibitor, full curve, poor fit] |

Not a retest: entries from further up.

| SMILES | activity change, negative = inhibition | Potency |
| --- | --- | --- |
| COC(=O)c1ccc(NC(=O)CSc2ccc(-c3cccs3)nn2)cc1 | – | inconclusive: 5.62 µM [inhibitor, single point] |
| O=C(Nc1ccc(-c2nc3ccc(NC(=O)c4cccs4)cc3[nH]2)cc1)c1cccs1 | – | inconclusive: 17.8 µM [inhibitor, partial curve, poor fit] |
| Cc1cccc(OCC(=O)Nc2ccc(C(=O)OCc3cc(=O)n4nc(C5CC5)sc4n3)cc2)c1 | – | inconclusive: 2 µM [inhibitor, single point] |

Later entries:

| SMILES | activity change, negative = inhibition | Potency |
| --- | --- | --- |
| Cc1cc(OCCn2c(C3CC(=O)N(Cc4ccc(F)cc4)C3)nc3ccccc32)ccc1Cl (centres undefined) | inactive: -1.51% [at 46.1 µM] | – |
| COc1cc2[nH]c(=O)n(CCCC(=O)NCc3ccccc3Cl)c(=O)c2cc1OC | inactive: -27.5% [at 46.1 µM] | – |
| O=C(CN1C(=O)c2cccc3cccc1c23)NCc1ccccn1 | – | inconclusive: 29.1 µM [activator, single point] |
| O=C(CSc1nc2c(c(=O)[nH]1)CCCC2)Nc1cccc(O)c1 | inactive: -18% [at 46.1 µM] | – |
| Cc1nn(-c2nc3ccccc3[nH]2)c(N)c1-c1ccccc1 | – | inconclusive: 1.3 µM [activator, full curve, poor fit] |
| COC(=O)N[C@H](C(C(=O)OC)=C(C)NCc1ccccc1)c1cccs1 | – | inconclusive: 3.35 µM [inhibitor, single point] |
| O=C(NCc1ccco1)c1ccc(Cl)c(S(=O)(=O)N2CCc3ccccc32)c1 | – | inconclusive: 8.91 µM [inhibitor, partial curve, poor fit] |
| CS(=O)(=O)c1cnc2c(-c3ccc(F)cc3)cnn2c1N | inactive: 5.89% | – |
| Cc1ccc(C)c(N2CCN(CCCNC(=O)Cn3c(-c4cccs4)cc4ccccc43)CC2)c1 | – | inconclusive: 11.2 µM [inhibitor, single point] |
| CC1CCN(C(=O)COc2cccc3c2CCN(C)C3=O)CC1 | inactive: -0.122% | – |
| S=C(NCCC(c1ccccc1)c1ccccc1)Nc1ccc(Cl)cc1 | – | inconclusive: 18.3 µM [inhibitor, partial curve, poor fit] |
| O=C(Cc1cc(=O)oc2cc(O)ccc12)NN=Cc1ccc(N(CCCl)CCCl)cc1 | – | inconclusive: 1.58 µM [inhibitor, partial curve, poor fit] |
| O=C(NCCC1CCCCN1S(=O)(=O)c1cccs1)C(=O)Nc1ccc(F)cc1 (centres undefined) | – | inconclusive: 7.08 µM [inhibitor, full curve, poor fit] |
| O=C1c2ccccc2C(=O)c2[nH]c(=O)[nH]c21 | – | active: 10 µM |
| O=C(Cn1c(=O)oc2ccccc21)NCc1ccccc1Cl | inactive: -0.544% [at 46.1 µM] | – |
| Cc1ccc(C(c2sc3nc(C)nn3c2O)N2CCN(c3ccccc3F)CC2)cc1 (centres undefined) | – | inconclusive: 1.58 µM [inhibitor, partial curve, poor fit] |
| COC(=O)c1ccc(NC(=O)C2CCCO2)cc1 (centres undefined) | – | inconclusive: 0.517 µM [activator, full curve, poor fit] |
| COc1cc(NC(=O)c2cccc(Cl)c2)c(OC)cc1NC(=O)CN1CCCCC1 | inactive: -28.9% | – |
| Clc1ccc(-c2ccc(SCc3ccccn3)nn2)cc1 | inactive: 14% | – |
| O=C(COC(=O)c1c(Cl)ccc(Cl)c1Cl)NCC1CCCO1 (centres undefined) | – | inconclusive: 0.447 µM [inhibitor, partial curve, poor fit] |
| CCOC(=O)c1cc(C)n(S(=O)(=O)c2ccc(C)cc2)c1C | – | inconclusive: 35.5 µM [inhibitor, single point] |
| C=CCn1c(CC(=O)Nc2ccc(C)cc2C)nnc1SCC(=O)N1CCOCC1 | – | inconclusive: 1.26 µM [activator, single point] |
